{"sequences": {"note": "By UniProt entry, the sequences of proteins in these tests, tags left out. Where a name states a change or a piece, a line headed by the entry shows the natural chain unless it says otherwise.", "UniProt P43694": "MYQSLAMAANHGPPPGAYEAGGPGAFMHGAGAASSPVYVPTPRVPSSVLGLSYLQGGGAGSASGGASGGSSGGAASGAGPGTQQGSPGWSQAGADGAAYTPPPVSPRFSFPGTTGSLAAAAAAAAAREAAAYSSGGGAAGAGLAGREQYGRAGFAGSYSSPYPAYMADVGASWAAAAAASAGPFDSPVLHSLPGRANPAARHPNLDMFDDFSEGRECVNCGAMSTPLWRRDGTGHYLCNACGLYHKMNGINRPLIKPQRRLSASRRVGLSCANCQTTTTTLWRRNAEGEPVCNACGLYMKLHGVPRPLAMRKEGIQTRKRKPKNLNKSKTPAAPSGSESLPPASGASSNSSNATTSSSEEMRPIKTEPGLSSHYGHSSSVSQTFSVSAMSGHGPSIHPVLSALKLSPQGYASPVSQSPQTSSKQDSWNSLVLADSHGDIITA", "UniProt Q04206": "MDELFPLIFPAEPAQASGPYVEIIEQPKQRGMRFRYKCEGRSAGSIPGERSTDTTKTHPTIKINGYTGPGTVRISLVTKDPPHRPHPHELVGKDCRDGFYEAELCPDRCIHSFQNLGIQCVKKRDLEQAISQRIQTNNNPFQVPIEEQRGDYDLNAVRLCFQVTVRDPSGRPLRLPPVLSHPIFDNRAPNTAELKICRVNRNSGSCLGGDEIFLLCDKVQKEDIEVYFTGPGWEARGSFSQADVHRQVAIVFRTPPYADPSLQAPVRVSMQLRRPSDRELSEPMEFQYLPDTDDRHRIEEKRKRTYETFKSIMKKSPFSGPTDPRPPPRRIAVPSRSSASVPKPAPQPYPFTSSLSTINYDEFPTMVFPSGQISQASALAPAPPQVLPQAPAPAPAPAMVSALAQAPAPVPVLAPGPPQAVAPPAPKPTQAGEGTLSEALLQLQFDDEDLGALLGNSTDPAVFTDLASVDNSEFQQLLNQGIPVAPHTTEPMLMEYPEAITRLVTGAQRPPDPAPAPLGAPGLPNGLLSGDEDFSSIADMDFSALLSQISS"}, "source": "paper PMC11039647", "key": {"Myc-GATA4-△ZF1": {"target": "Myc-GATA4-△ZF1 (UniProt P43694)", "assay": "co-IP; HEK293T cells co-transfected with tagged plasmids, lysates in TNE lysis buffer; immunoprecipitation with anti-GFP or anti-Myc antibody or Flag-affinity magnetic beads, western blot for the tag of the partner; for HA-HDAC1 with GFP-p65: with or without co-transfected Flag-GATA4"}, "Myc-GATA4-△ZF2": {"target": "Myc-GATA4-△ZF2 (UniProt P43694)", "assay": "co-IP; HEK293T cells co-transfected with tagged plasmids, lysates in TNE lysis buffer; immunoprecipitation with anti-GFP or anti-Myc antibody or Flag-affinity magnetic beads, western blot for the tag of the partner; for HA-HDAC1 with GFP-p65: with or without co-transfected Flag-GATA4"}}, "note": "Results are given in words; binding and its absence hold for the method and conditions named. In cells and extracts the contact can be indirect. A result given as binding can be weak or reduced; the word gives no strength."}
{"substance": "GFP-p65 (from UniProt Q04206 1-551)", "values": [{"measurement": "binding", "setting": "Myc-GATA4-△ZF1", "value": "binds"}, {"measurement": "binding", "setting": "Myc-GATA4-△ZF2", "value": "binds"}]}
